# Assay results taken from the supplement of paper PMC7830784.
# Where a name gives a salt, the structure may show the parent alone. Some of the results follow. Single values are uncertain here, since repeats match poorly.
# Tested on: Brugia pahangi adult female
# Test: motility inhibition on day 3 relative to DMSO vehicle; higher = more active
# Settings: 10 µM; 3 days
row,Structure (SMILES),motility inhibition on day 3 [%]
1,COc1ccc(-c2cc(C(F)F)nn2-c2ccc(S(N)(=O)=O)cc2)cc1F [deracoxib],1.48
2,CC(Oc1ccccc1)C(=O)N[C@@H]1C(=O)N2[C@@H]1SC(C)(C)[C@@H]2C(=O)O (stereo not given in full) [phenethicillin potassium],32
3,CC[C@@H]1/C=C(\C)C[C@H](C)C[C@H](OC)[C@H]2O[C@@](O)(C(=O)C(=O)N3CCCC[C@H]3C(=O)O[C@H](/C(C)=C/[C@@H]3CC[C@H](Cl)[C@H](OC)C3)[C@H](C)[C@@H](O)CC1=O)[C@H](C)C[C@@H]2OC [Pimecrolimus],0.554
4,COc1ccc(C(=O)NCc2ccc(OCCN(C)C)cc2)cc1OC [itopride  hydrochloride],< 0
5,N[C@@H](C(=O)N[C@@H]1C(=O)N2C(C(=O)O)=C(Cl)CS[C@H]12)c1ccccc1 [cefaclor],5.3
6,CC(C)CN(C[C@@H](OP(=O)(O)O)[C@H](Cc1ccccc1)NC(=O)O[C@H]1CCOC1)S(=O)(=O)c1ccc(N)cc1 [Fosamprenavir Calcium Salt],2.07
7,Cc1ccc2c(Cl)cc(Cl)c(O)c2n1 [chlorquinaldol],< 0
8,N=C(N)N/N=C/c1c(Cl)cccc1Cl [Guanabenz acetate],21.2
9,N=C(N)N/N=C/c1c(Cl)cccc1Cl [guanabenz acetate],21.7
10,OC(CCN1CCCCC1)(c1ccccc1)C1CCCCC1 (stereo not given) [Trihexyphenidyl hydrochloride],7.65
11,O=C(OCc1ccccc1)c1ccccc1 [benzyl benzoate],2.46
12,CCCc1nc(C(C)(C)O)c(C(=O)O)n1Cc1ccc(-c2ccccc2-c2nnn[nH]2)cc1 [olmesartan],31.1
13,Brc1c(NC2=NCCN2)ccc2nccnc12,< 0
14,CN(C)CCOC(=O)COc1ccc(Cl)cc1 [meclofenoxate hydrochloride],9.78
15,CC(N)C12CC3CC(CC(C3)C1)C2 (stereo not given) [rimantadine hydrochloride],19
16,COC(=O)C(N)CS (stereo not given) [mecysteine hydrochloride],< 0
17,Nc1cc(-c2ccncc2)c[nH]c1=O [amrinone],2.63
18,CN(CCOc1ccc(CC2SC(=O)NC2=O)cc1)c1ccccn1 (stereo not given) [rosiglitazone],33
19,CN(C)CC[C@@H](c1ccc(Cl)cc1)c1ccccn1 [dexchlorpheniramine maleate],12.8
20,CCc1oc2ccccc2c1C(=O)c1cc(Br)c(O)c(Br)c1 [benzbromarone],5.12
21,CC/C(=C(\c1ccccc1)c1ccc(OCCN(C)C)cc1)c1ccccc1 [Tamoxifen citrate],10.1
22,CN[C@@H]1[C@H](O[C@H]2[C@H](O[C@H]3[C@H](O)[C@@H](O)[C@H](NC(=N)N)[C@@H](O)[C@@H]3NC(=N)N)O[C@@H](C)[C@]2(O)CO)O[C@@H](CO)[C@H](O)[C@H]1O [dihydrostreptomycin sulfate],0.0193
23,NCc1ccc(S(N)(=O)=O)cc1 [mafenide hydrochloride],15.4
24,CC(C)(C)NCC(O)c1cc(O)cc(O)c1 (stereo not given) [terbutaline hemisulfate],< 0
25,CC[N+](CC)(CC)CCOc1cccc(OCC[N+](CC)(CC)CC)c1OCC[N+](CC)(CC)CC [Gallamine triethiodide],30.8

# Taken from the listing (ten entries):
row,Structure (SMILES),motility inhibition on day 3 [%]
2,CC(Oc1ccccc1)C(=O)N[C@@H]1C(=O)N2[C@@H]1SC(C)(C)[C@@H]2C(=O)O (stereo not given in full) [phenethicillin potassium],32
3,CC[C@@H]1/C=C(\C)C[C@H](C)C[C@H](OC)[C@H]2O[C@@](O)(C(=O)C(=O)N3CCCC[C@H]3C(=O)O[C@H](/C(C)=C/[C@@H]3CC[C@H](Cl)[C@H](OC)C3)[C@H](C)[C@@H](O)CC1=O)[C@H](C)C[C@@H]2OC [Pimecrolimus],0.554
4,COc1ccc(C(=O)NCc2ccc(OCCN(C)C)cc2)cc1OC [itopride  hydrochloride],< 0
5,N[C@@H](C(=O)N[C@@H]1C(=O)N2C(C(=O)O)=C(Cl)CS[C@H]12)c1ccccc1 [cefaclor],5.3
6,CC(C)CN(C[C@@H](OP(=O)(O)O)[C@H](Cc1ccccc1)NC(=O)O[C@H]1CCOC1)S(=O)(=O)c1ccc(N)cc1 [Fosamprenavir Calcium Salt],2.07
7,Cc1ccc2c(Cl)cc(Cl)c(O)c2n1 [chlorquinaldol],< 0
8,N=C(N)N/N=C/c1c(Cl)cccc1Cl [Guanabenz acetate],21.2
9,N=C(N)N/N=C/c1c(Cl)cccc1Cl [guanabenz acetate],21.7
10,OC(CCN1CCCCC1)(c1ccccc1)C1CCCCC1 (stereo not given) [Trihexyphenidyl hydrochloride],7.65
11,O=C(OCc1ccccc1)c1ccccc1 [benzyl benzoate],2.46

# The results go on.

row,Structure (SMILES),motility inhibition on day 3 [%]
1,CCOC(=O)[N-]c1c[n+](N2CCOCC2)no1 [molsidomine],< 0
2,C#C[C@]1(O)CC[C@H]2[C@@H]3CCC4=C(CCC(=O)C4)[C@H]3CC[C@@]21C [norethynodrel],14.4
3,COc1cc2ncnc(Nc3ccc(F)c(Cl)c3)c2cc1OCCCN1CCOCC1 [gefitinib],14.1
4,CCOc1ccc(NC(C)=O)cc1 [phenacetin],8.06
5,CN1CCC[C@@H]1CCO[C@](C)(c1ccccc1)c1ccc(Cl)cc1 [clemastine],11.5
6,O=C(O)c1ccccc1 [benzoic acid],24.6
7,CC[C@@H]([C@H](C)O)n1ncn(-c2ccc(N3CCN(c4ccc(OC[C@@H]5CO[C@@](Cn6cncn6)(c6ccc(F)cc6F)C5)cc4)CC3)cc2)c1=O [Posaconazole],91.3
8,CC(=O)Nc1ccc(C(=O)O)cc1 [acedoben],1.43
9,CCCCC[C@H](O)/C=C/[C@H]1[C@H](O)CC(=O)[C@@H]1CCCCCCC(=O)O [Prostaglandin E1],6.47
10,COc1ccc(CN2CCN(C(c3ccc(F)cc3)c3ccc(F)cc3)CC2)c(OC)c1OC [lomerizine hydrochloride],< 0
11,OCc1ccccn1 [piconol],28.1
12,Nc1nc2[nH]cc(CCc3ccc(C(=O)N[C@@H](CCC(=O)O)C(=O)O)cc3)c2c(=O)[nH]1 [pemetrexed],< 0
13,COCCc1ccc(OCC(O)CNC(C)C)cc1 (stereo not given) [metoprolol tartrate],< 0
14,COc1ccc(C(=O)c2ccccc2O)c(O)c1 [dioxybenzone],< 0
15,CC(C)(C)NC[C@H](O)COc1ccccc1C1CCCC1 [penbutolol sulfate],7.81
16,CC1CCCC(C)N1 (stereo not given) [nanofin],1.91
17,Cc1ncc(COP(=O)([O-])[O-])c(CN(CCN(CC(=O)O)Cc2c(COP(=O)([O-])O)cnc(C)c2O)CC(=O)O)c1O.[Mn].[Na+].[Na+].[Na+] [mangafodipir trisodium],3.58
18,CC1=C(C/C=C(\C)CCC[C@H](C)CCC[C@H](C)CCCC(C)C)C(=O)c2ccccc2C1=O [phytonadione],37.7
19,O=C(O)C1(C(=O)O)CCC1.[NH2-].[NH2-].[Pt+2] [Carboplatin],7.41
20,O=C(O)C1(C(=O)O)CCC1.[NH2-].[NH2-].[Pt+2] [carboplatin],33.4
21,Cc1cnc(C(=O)O)c[n+]1[O-] [acipimox],< 0
22,CC(=O)Nc1cccc(O)c1 [metacetamol],< 0
23,CCCCNc1ccc(C(=O)OCCN(C)C)cc1 [Tetracaine hydrochloride],< 0
24,CCCCCOC(=O)Nc1nc(=O)n([C@@H]2O[C@H](C)[C@@H](O)[C@H]2O)cc1F [capecitabine],2.03
25,CCN(CC)CCOc1ccc(C(=C(Cl)c2ccccc2)c2ccccc2)cc1 [clomiphene citrate],10.5
